PMC12744885

Target: Drosophila PH4αEFB (Drosophila melanogaster (endogenous in D17 cells))
Test: affinity purification with mass spectrometry; both proteins endogenous in D17 lysate, recovered together on Gelatin Sepharose 4B after TBS and 1 M NaCl washes; gel bands identified by protein ID LC-MS

binding: binds
B1: Drosophila protein disulfide isomerase (enzyme, UniProt P54399 19-496)
chain: AEAEVKVEEGVLVATVDNFKQLIADNEFVLVEFYAPWCGHCKALAPEYAKAAQQLAEKESPIKLAKVDATVEGELAEQYAVRGYPTLKFFRSGSPVEYSGGRQAADIIAWVTKKTGPPAKDLTSVADAEQFLKDNEIAIIGFFKDLESEEAKTFTKVANALDSFVFGVSSNADVIAKYEAKDNGVVLFKPFDDKKSVFEGELNEENLKKFAQVQSLPLIVDFNHESASKIFGGSIKSHLLFFVSREGGHIEKYVDPLKEIAKKYRDDILFVTISSDEEDHTRIFEFFGMNKEEVPTIRLIKLEEDMAKYKPESDDLSAETIEAFLKKFLDGKLKQHLLSQELPEDWDKNPVKVLVSSNFESVALDKSKSVLVEFYAPWCGHCKQLAPIYDQLAEKYKDNEDIVIAKMDSTANELESIKISSFPTIKYFRKEDNKVIDFNLDRTLDDFVKFLDANGEVADSEPVEETEEEEEAPKKDEL

Results are given in words; binding and its absence hold for the method and conditions named. Binding seen in cells or lysates may run through a third protein. Here binding means that the protein was enriched with, or labelled near, the bait; the list need not be complete.
